Literature values in US7524864B2, “Methods of treating sleep disorders” (Hypnion, Inc., priority 2004, dated 2009).
Some entries share one result that the patent states for a list of compounds.

Protein sequences, listed by entry. Tags and fused reporters are not part of them.
UniProt P30546, whole entry: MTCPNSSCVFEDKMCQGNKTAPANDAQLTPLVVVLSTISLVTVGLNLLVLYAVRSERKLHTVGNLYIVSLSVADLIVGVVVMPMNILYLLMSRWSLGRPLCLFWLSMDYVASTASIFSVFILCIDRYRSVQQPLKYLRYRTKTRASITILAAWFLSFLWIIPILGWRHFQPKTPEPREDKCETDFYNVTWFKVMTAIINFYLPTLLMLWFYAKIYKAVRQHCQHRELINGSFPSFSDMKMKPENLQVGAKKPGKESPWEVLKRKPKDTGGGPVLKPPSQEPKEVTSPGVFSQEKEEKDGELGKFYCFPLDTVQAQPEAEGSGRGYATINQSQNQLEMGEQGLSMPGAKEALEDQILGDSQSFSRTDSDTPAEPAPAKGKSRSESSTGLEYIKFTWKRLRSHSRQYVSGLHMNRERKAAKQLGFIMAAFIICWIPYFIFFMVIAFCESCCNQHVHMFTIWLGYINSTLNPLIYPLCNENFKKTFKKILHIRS

Target: T1, H1 receptor (Bos taurus, UniProt P30546)
T1 construct: the receptors are obtained from bovine cerebellar membrane tissue; from tissue; host or cells: bovine cerebellar membranes
Conditions: reference compounds; read-out: Ki of reference compounds in H1 binding assay (unit inferred); cited from earlier work

CN(C)CCCSC(=N)N [dimaprit]
Ki: > 10 µM
